This experiment addresses human Unc5D (residues 33-379) alkaline phosphatase fusion (Unc5D-AP) (human) (UniProt Q6UXZ4). Nature of the experiment: ELISA; Unc5D-AP conditioned medium captured by anti-AP in 96-well plates as bait; culture medium of 95 ecto-Fc prey proteins added with anti-human IgG1-HRP; 4 h at room temperature; absorbance at 650 nm; in duplicate. On the technique in general: ELISA stands for enzyme-linked immunosorbent assay.

Amino acid sequences for entries named in this document (tags omitted). Residues count along the entry.
UniProt Q6UXZ4, residues 33-379: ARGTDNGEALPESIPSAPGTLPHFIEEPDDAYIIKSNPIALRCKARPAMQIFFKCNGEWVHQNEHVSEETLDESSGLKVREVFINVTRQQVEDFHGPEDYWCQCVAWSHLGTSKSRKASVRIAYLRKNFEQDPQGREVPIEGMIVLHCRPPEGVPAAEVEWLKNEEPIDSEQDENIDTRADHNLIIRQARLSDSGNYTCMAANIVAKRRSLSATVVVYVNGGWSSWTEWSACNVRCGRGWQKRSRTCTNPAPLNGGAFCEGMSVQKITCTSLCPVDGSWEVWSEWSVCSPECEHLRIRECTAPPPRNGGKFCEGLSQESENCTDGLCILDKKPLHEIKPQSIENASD

Results are given in words; binding and its absence hold for the method and conditions named. Some results given as binding are weak or reduced against the parent protein; the word gives no strength. Sequences can lack the tags named with a protein.

B1: FLRT2 Fc-tagged ectodomain prey (Fc fusion, UniProt O43155 36-541)
chain: CPSVCRCDRNFVYCNERSLTSVPLGIPEGVTVLYLHNNQINNAGFPAELHNVQSVHTVYLYGNQLDEFPMNLPKNVRVLHLQENNIQTISRAALAQLLKLEELHLDDNSISTVGVEDGAFREAISLKLLFLSKNHLSSVPVGLPVDLQELRVDENRIAVISDMAFQNLTSLERLIVDGNLLTNKGIAEGTFSHLTKLKEFSIVRNSLSHPPPDLPGTHLIRLYLQDNQINHIPLTAFSNLRKLERLDISNNQLRMLTQGVFDNLSNLKQLTARNNPWFCDCSIKWVTEWLKYIPSSLNVRGFMCQGPEQVRGMAVRELNMNLLSCPTTTPGLPLFTPAPSTASPTTQPPTLSIPNPSRSYTPPTPTTSKLPTIPDWDGRERVTPPISERIQLSIHFVNDTSIQVSWLSLFTVMAYKLTWVKMGHSLVGGIVQERIVSGEKQHLSLVNLEPRSTYRICLVPLDAFNYRAVEDTICSEATTHASYLNNGSNTASSHEQTTSHSMGSPF
As for B1, the binding result is given as “binds”.

B2: FLRT3 Fc-tagged ectodomain prey (Fc fusion, UniProt Q9NZU0 29-528)
chain: KSCPSVCRCDAGFIYCNDRFLTSIPTGIPEDATTLYLQNNQINNAGIPSDLKNLLKVERIYLYHNSLDEFPTNLPKYVKELHLQENNIRTITYDSLSKIPYLEELHLDDNSVSAVSIEEGAFRDSNYLRLLFLSRNHLSTIPWGLPRTIEELRLDDNRISTISSPSLQGLTSLKRLVLDGNLLNNHGLGDKVFFNLVNLTELSLVRNSLTAAPVNLPGTNLRKLYLQDNHINRVPPNAFSYLRQLYRLDMSNNNLSNLPQGIFDDLDNITQLILRNNPWYCGCKMKWVRDWLQSLPVKVNVRGLMCQAPEKVRGMAIKDLNAELFDCKDSGIVSTIQITTAIPNTVYPAQGQWPAPVTKQPDIKNPKLTKDHQTTGSPSRKTITITVKSVTSDTIHISWKLALPMTALRLSWLKLGHSPAFGSITETIVTGERSEYLVTALEPDSPYKVCMVPMETSNLYLFDETPVCIETETAPLRMYNPTTTLNREQEKEPYKNPNLP
Consider B2, for which the binding result was “binds”.

Source of the values: PMC9596381.
